The test relates to BDF1 mice, B16 melanoma ip, median survival T/C. Description: NCI In Vivo Anticancer Drug Screen. Data for tumor model B16 Melanoma (intraperitoneal) in B6D2F1 (BDF1) mice. The note with it: T/C endpoint: median survival time, higher T/C = longer survival. The essentials:
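Each result divides a survival or tumor-size measurement in the compound-treated group by the same measurement in the vehicle group.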

The mark [1] stands for this setting: dose: 200.0 mg/kg/injection, schedule: Q01DX009 (ip), vehicle: Klucel (hydroxypropylcellulose) (HPC).
Where [2] appears, read: dose: 400.0 mg/kg/injection, schedule: Q01DX009 (ip), vehicle: Klucel (hydroxypropylcellulose) (HPC).
The mark [3] stands for this setting: dose: 200.0 mg/kg/injection, schedule: Q01DX009 (ip), vehicle: saline.
The mark [4] stands for this setting: dose: 1.56 mg/kg/injection, schedule: Q01DX009 (ip), vehicle: Klucel (hydroxypropylcellulose) (HPC).
Where [5] appears, read: dose: 6.25 mg/kg/injection, schedule: Q01DX009 (ip), vehicle: Klucel (hydroxypropylcellulose) (HPC).
The mark [6] stands for this setting: dose: 12.5 mg/kg/injection, schedule: Q01DX009 (ip), vehicle: Klucel (hydroxypropylcellulose) (HPC).
Where [7] appears, read: dose: 50.0 mg/kg/injection, schedule: Q01DX009 (ip), vehicle: Klucel (hydroxypropylcellulose) (HPC).
Setting [8] is: dose: 200.0 mg/kg/injection, schedule: Q01DX009 (ip), vehicle: saline with Tween-80.
Setting [9] is: dose: 400.0 mg/kg/injection, schedule: Q01DX009 (ip), vehicle: saline with Tween-80.
Setting [10] is: dose: 25.0 mg/kg/injection, schedule: Q01DX009 (ip), vehicle: Klucel (hydroxypropylcellulose) (HPC).

The list does not hold the whole screen: it is rich in T/C values a quarter to a half above the control, in often repeated tests (any T/C) and in doses without a T/C. Further doses and runs are listed elsewhere. T/C gives the treated animals as a percentage of the vehicle group. Some doses have a count of surviving animals in place of a T/C: the source files T/C as zero there, which appears to mark a toxic dose or a test without result, not a measured value. Some doses without a T/C left all or most animals alive at the check, yet need not have been tolerated: the source hardly ever lists a survival T/C far under the control, and the zero likely stands for such cases as well. Survivors were counted at the toxicity check, usually on the fifth day, unless a day is given; later deaths do not show. Schedules are NCI's codes, taken here to give the interval after Q, in days (D) or hours (H), and the number of doses after X. Some entries were tested several times; the values are given in rising order. Where survival is the endpoint, the PubChem record calls one and a half times the control and up active, and a quarter to a half above the control has no call in these data; cut-offs in other NCI protocols can differ.

Regarding `CC(CN=Cc1ccccc1O)N=Cc1ccccc1O` (centres undefined), the survivor count is given as 10 of 10 under setting [1] and 10 of 10 under setting [2].

As to `NC(=O)CC(N)C(=O)O.[Cl-].[Cl-].[Cl-].[Cl-].[Pt+2]` (centres undefined), the T/C is, setting by setting: (dose: 0.78 mg/kg/injection, schedule: Q01DX009 (ip), vehicle: saline) 135 % of control; (dose: 6.25 mg/kg/injection, schedule: Q01DX009 (ip), vehicle: saline) 131 % of control; (dose: 12.5 mg/kg/injection, schedule: Q01DX009 (ip), vehicle: saline) 127 % of control.

Turning to `COc1cc(C(=O)OC(C)CN2CCN(C(=O)c3cc(OC)c(OC)c(OC)c3)CC2)cc(OC)c1OC` (centres undefined), under setting [3], the survivor count was 7 of 10.

For `COc1ccc(CC(C(=O)O)C(Cc2ccc(OC)c(OC)c2)C(=O)O)cc1OC` (centres undefined), the survivor count under setting [2] is recorded as 9 of 10.

Consider `O=C1OCCN1/N=C/c1ccc([N+](=O)[O-])o1`, for which the survivor count reads like this: under setting [1], 10 of 10; under setting [2], 0 of 10.

Turning to `O=C(CCCN1CCC(n2c(=O)[nH]c3ccccc32)CC1)c1ccc(F)cc1`, the survivor count is, setting by setting: under setting [4], 9 of 10; under setting [5], 10 of 10; under setting [6], 10 of 10; under setting [7], 4 of 10 and 10 of 10; (dose: 100.0 mg/kg/injection, schedule: Q01DX009 (ip), vehicle: Klucel (hydroxypropylcellulose) (HPC)) 0 of 10 and 2 of 10; under setting [1], 0 of 10. Also, under setting [2], the survivor count is recorded as 0 of 10.

As for `O=C(NC(Cc1ccccc1)C(=O)O)OCC1c2ccccc2-c2ccccc21` (centres undefined), under setting [1], the survivor count is given as 7 of 10.

On to `S=C(Nc1ccccn1)Nc1ccccn1`, for which the survivor count under setting [1] is listed as 7 of 7.

On to `O=C(O)CC(NC(=O)c1ccccc1)C(=O)O` (centres undefined), for which the survivor count (dose: 100.0 mg/kg/injection, schedule: Q01DX009 (ip), vehicle: saline with Tween-80) is 10 of 10; the survivor count under setting [8] is on record as 10 of 10; the survivor count under setting [9] is listed as 8 of 10.

Consider `CCN(CC)CCOC(=O)N(c1ccccc1)c1ccccc1`, for which the survivor count is on record as 0 of 10 under setting [3] and 0 of 10 (dose: 400.0 mg/kg/injection, schedule: Q01DX009 (ip), vehicle: saline).

Consider `O=C(O)c1cc2oc3ccccc3c2cc1O`, for which the survivor count under setting [1] is 2 of 10.

As for `CCC1(CC)OC2=C(CC(C#N)(C#N)C(C#N)(C#N)C2)O1`, the survivor count (dose: 25.0 mg/kg/injection, schedule: Q04DX003 (ip), vehicle: Klucel (hydroxypropylcellulose) (HPC)) is on record as 10 of 10; the survivor count (dose: 50.0 mg/kg/injection, schedule: Q04DX003 (ip), vehicle: Klucel (hydroxypropylcellulose) (HPC)) is 7 of 10; the survivor count (dose: 100.0 mg/kg/injection, schedule: Q04DX003 (ip), vehicle: Klucel (hydroxypropylcellulose) (HPC)) was 8 of 10 and 9 of 10; the survivor count (dose: 200.0 mg/kg/injection, schedule: Q04DX003 (ip), vehicle: Klucel (hydroxypropylcellulose) (HPC)) is on record as 8 of 10; the survivor count (dose: 400.0 mg/kg/injection, schedule: Q04DX003 (ip), vehicle: Klucel (hydroxypropylcellulose) (HPC)) is recorded as 7 of 10.

Turning to `N#CSc1ccc(S(N)(=O)=O)cc1`, the survivor count under setting [10] is reported as 0 of 10.

As to `C#CC1(OCC(CCl)OC(N)=O)CCCCC1` (centres undefined), the survivor count by setting is: (dose: 50.0 mg/kg/injection, schedule: Q01DX009 (ip), vehicle: saline with Tween-80) 10 of 10; under setting [8], 10 of 10; under setting [9], 10 of 10.

In the case of `CC(C)(C)c1ccc(CN2CCN(C(c3ccccc3)c3ccc(Cl)cc3)CC2)cc1` (centres undefined), the survivor count runs as follows: (dose: 0.09 mg/kg/injection, schedule: Q01DX009 (ip), vehicle: Klucel (hydroxypropylcellulose) (HPC)) 10 of 10; (dose: 0.19 mg/kg/injection, schedule: Q01DX009 (ip), vehicle: Klucel (hydroxypropylcellulose) (HPC)) 10 of 10; (dose: 0.78 mg/kg/injection, schedule: Q01DX009 (ip), vehicle: Klucel (hydroxypropylcellulose) (HPC)) 9 of 10; under setting [4], 10 of 10; (dose: 3.12 mg/kg/injection, schedule: Q01DX009 (ip), vehicle: Klucel (hydroxypropylcellulose) (HPC)) 10 of 10; under setting [5], 8 of 10. In addition, the survivor count by setting is: under setting [6], 10 of 10; under setting [10], 9 of 10 and 10 of 10; under setting [7], 10 of 10.

As for `CN(C)N=Nc1ccc(S(=O)(=O)Nc2ncccn2)cc1`, the T/C runs as follows: (dose: 25.0 mg/kg/injection, schedule: Q01DX009 (ip), vehicle: saline with Tween-80) 141 % of control; (dose: 50.0 mg/kg/injection, schedule: Q01DX009 (ip), vehicle: saline with Tween-80, evaluated on day 45) 138 % of control; (dose: 50.0 mg/kg/injection, schedule: Q01DX009 (ip), vehicle: saline with Tween-80, evaluated on day 60) 116, 119, 135 % of control; (dose: 75.0 mg/kg/injection, schedule: Q01DX009 (ip), vehicle: saline with Tween-80) 137 % of control; (dose: 100.0 mg/kg/injection, schedule: Q01DX009 (ip), vehicle: saline with Tween-80, evaluated on day 45) 141 % of control; (dose: 100.0 mg/kg/injection, schedule: Q01DX009 (ip), vehicle: saline with Tween-80, evaluated on day 60) 139 % of control.

On to `CCCCC(=O)OCC(=O)[C@]1(O)Cc2c(O)c3c(c(O)c2[C@@H](OC2CC(NC(=O)C(F)(F)F)C(O)C(C)O2)C1)C(=O)c1c(OC)cccc1C3=O` (some centres undefined), for which the T/C (dose: 8.0 mg/kg/injection, schedule: Q01DX009 (ip), vehicle: distilled water + Tween-80) was 136 % of control; the T/C (dose: 9.38 mg/kg/injection, schedule: Q01DX001 (ip), vehicle: clinical formulation) is 126 % of control; the T/C (dose: 16.0 mg/kg/injection, schedule: Q01DX009 (ip), vehicle: distilled water + Tween-80) was 140 % of control; the T/C (dose: 60.0 mg/kg/injection, schedule: Q01DX004 (ip), vehicle: other) was 141 % of control; the T/C (dose: 75.0 mg/kg/injection, schedule: Q01DX001 (ip), vehicle: clinical formulation) is 128 % of control. In addition, the survivor count (dose: 256.0 mg/kg/injection, schedule: Q01DX009 (ip), vehicle: distilled water + Tween-80) is 10 of 10.

As for `CCCCC(CCC)(CCN)CCCC`, under “dose: 8.0 mg/kg/injection, schedule: Q01DX009 (ip), vehicle: saline sonified”, the survivor count is 6 of 6.

Take `N/C(=N\O)c1cn(C2OC(CO)C(O)C2O)c2ncnc(N)c12` (centres undefined): the survivor count (dose: 8.0 mg/kg/injection, schedule: Q01DX009 (ip), vehicle: saline) was 6 of 6.

For `O=CN(O)CC(=O)O.[Zn]`, the survivor count (dose: 40.0 mg/kg/injection, schedule: Q01DX009 (ip), vehicle: saline) was 0 of 10.

`CC1(C)N=C(N)N=C(N)N1c1cccc(CCC(=O)Nc2ccc(S(=O)(=O)F)cc2)c1`: under “dose: 15.0 mg/kg/injection, schedule: Q01DX009 (ip), vehicle: saline with Tween-80”, the T/C was 126 % of control.

`O=CNC(CSSCC(NC=O)C(=O)O)C(=O)O` (centres undefined): under setting [9], the survivor count is recorded as 9 of 10.

In the case of `Cc1ccc(S(=O)(=O)N=N/C=C2/C=CC=CN2O)cc1`, under setting [1], the survivor count was 10 of 10.

Turning to `Cc1ccc(C(=O)NC2C(=O)NC(C(C)C)C(=O)N3CCCC3C(=O)N(C)CC(=O)N(C)C(C(C)C)C(=O)OC2C)c2c1Oc1c(c(C(=O)NC3C(=O)NC(C(C)C)C(=O)N4CCCC4C(=O)N(C)CC(=O)N(C)C(C(C)C)C(=O)OC3C)c3nc(-c4ccccc4)c(=O)oc3c1C)N2` (centres undefined), for the setting “dose: 0.25 mg/kg/injection, schedule: Q04DX003 (ip), vehicle: water”, the T/C was 144 % of control. Besides, the survivor count (dose: 2.0 mg/kg/injection, schedule: Q04DX003 (ip), vehicle: saline + alcohol) was 10 of 10; the survivor count (dose: 2.0 mg/kg/injection, schedule: Q04DX003 (ip), vehicle: water) is 10 of 10; the survivor count (dose: 4.0 mg/kg/injection, schedule: Q04DX003 (ip), vehicle: saline + alcohol) was 10 of 10.

These data come from PubChem BioAssay AID192 (DTP/NCI, 2004).
